Measurements from paper PMC7862700.
The other results are listed elsewhere or left out. The exact form of the protein is not confirmed.

Biological target: T1, ETS1 (UniProt P14921)
T1 sequence: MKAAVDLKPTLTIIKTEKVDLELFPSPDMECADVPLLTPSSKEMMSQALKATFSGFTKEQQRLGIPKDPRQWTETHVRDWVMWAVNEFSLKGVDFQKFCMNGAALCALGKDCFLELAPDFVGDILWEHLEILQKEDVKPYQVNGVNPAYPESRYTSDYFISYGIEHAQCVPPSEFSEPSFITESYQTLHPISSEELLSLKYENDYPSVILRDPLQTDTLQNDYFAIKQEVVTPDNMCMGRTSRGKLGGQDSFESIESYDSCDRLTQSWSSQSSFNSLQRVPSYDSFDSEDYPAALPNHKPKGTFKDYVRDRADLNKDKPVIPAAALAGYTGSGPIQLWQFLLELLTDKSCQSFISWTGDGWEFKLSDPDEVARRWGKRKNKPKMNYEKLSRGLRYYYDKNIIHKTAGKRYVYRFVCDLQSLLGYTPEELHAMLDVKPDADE
Test: DAPPL (digital affinity profiling via proximity ligation, sequencing)
Conditions: 10 mM Tris-HCl pH 7.5, 50 mM NaCl, 1 mM DTT, 4% glycerol, room temperature, 30 min; GST-TFs on glutathione beads, 16-mer random dsDNA library, 0.1% …; high values mean tight binding; double strand, one strand shown; scale: fold enrichment (6-mer frequency, TF over GST control)

Sequence	binding signal
TGCCAT	1.07
GCTCAT	1.15
ATATCC	2.69
CCTGTA	1.35
TAAATT	1.22
ACGCGG	1.02
GCCCAA	1.06
CTTGCG	1.45
CAACGC	1.05
GAAGCC	1.04
AAGGCT	1.03
TTGATC	1.11
CTGACC	1.27
CCCCCT	1.13
CATTCT	1.35
ATGCCC	1.4
AGCACT	1.38
CCTCCA	1.29
CATGAT	1.16
ATGACC	1.53
CACCCG	1.14
TGCTTA	1.11
CTAACA	1.32
CCCGTC	1.02

For convenience, part of the list above.
Sequence	binding signal
CATTCT	1.35
ATGCCC	1.4
AGCACT	1.38
CCTCCA	1.29
CATGAT	1.16

Following part.

Sequence	binding signal
ACTGCC	1.31
TGATGC	1.63
AATTAT	1.22
ACAACC	1.24
AGCGTC	0.96
CCGGAT	2.98
GCACTA	1.12
CTACGC	1.63
GTTGCT	1.31
ACGCGC	1.01
TGGCCC	1.13
CGTCTG	1.03
AACTCC	1.34
TATGAC	1.27
CGGAAA	1.92
CGCCGG	1.09
CACTCA	1.11
CGCGAT	1.2
AATTTT	1.38
TGTAAC	1.35
AGCTCT	1.15
GTAATC	1.13
CCTATA	1.36
CCACGT	1.05

Sequence	binding signal
TTTTGG	1.4
CCCGTA	1.22
CACCTT	1.25
AGGTCT	1.18
TCATCT	1.19
GAATAT	1.04
GCCCTA	1.18
ATTATA	1.28
CAACTA	1.27
TATATT	1.47
TCGTCT	1.29
TTCCCG	1.79
TAAGCC	1.15
AAAATG	1.24
GTTAAG	1.03
CTTAGT	1.32
CCCCGT	0.934
GATAGC	1.07
CAATAG	1.04
ATTCAC	1.28
ATCCAT	1.14
ATTGTA	1.28
GCTACT	1.26
CGTCAA	1.08

Sequence	binding signal
ACTGGA	1.08
GCTCTC	1.35
CCGCTC	1.47
TTATAA	1.27
GCCCGC	0.993
AGCTTA	1.09
AGAACA	0.998
GGATGT	1.52
GTCCTG	1.09
GTCTCC	1.48
TACGGA	1.38
CGAACA	1.16
CGATGC	1.13
CTATTG	1.23
TGCGGA	1.28
CTCCCA	1.35
TGTCTG	1.05
CGTACA	1.21
ATCCCA	1.17
TCTCAT	1.4
TCTCCA	1.56
ACGGAA	1.75
CTCAGT	1.02
TTCCGC	3.09

Sequence	binding signal
CTATCA	1.02
TTTTCC	1.77
CTTAAT	1.35
CTGCTG	1.19
AATGAC	1.38
TACTCA	1.15
GGTTAT	1.05
TTTTCG	1.2
TAAGTA	1.16
AATAGG	1.09
ATTAAC	1.25
ACCGGC	1.07
GGTAAA	1.01
GGGTTT	1.13
GACATT	1.15
GGCTAC	1.26
AAAGTT	1.08
ATGCAG	1.14
AAAATA	1.19
ACCTCA	1.15
GTACAA	1.06
ACTGAC	1.32
GCTCCG	1.29
GACGAC	1.11
